Source: paper PMC5709735, “Real‐time detection of condensin‐driven DNA compaction reveals a multistep binding mechanism” (The EMBO Journal, 2017)
Results are given in words; binding and its absence hold for the method and conditions named. Some binding calls cover weakened binding; strength is not graded here.

Assays:
Smc4 (S. cerevisiae) = target: T1, Smc4 (S. cerevisiae) (UniProt Q12267); test: tandem affinity chromatography + SEC; subunits co-overexpressed in budding yeast; complexes purified from interphase cell extracts by the His12 tag on Brn1 and the triple StrepII tag on Smc4, followed by a gel filtration step
T1 sequence: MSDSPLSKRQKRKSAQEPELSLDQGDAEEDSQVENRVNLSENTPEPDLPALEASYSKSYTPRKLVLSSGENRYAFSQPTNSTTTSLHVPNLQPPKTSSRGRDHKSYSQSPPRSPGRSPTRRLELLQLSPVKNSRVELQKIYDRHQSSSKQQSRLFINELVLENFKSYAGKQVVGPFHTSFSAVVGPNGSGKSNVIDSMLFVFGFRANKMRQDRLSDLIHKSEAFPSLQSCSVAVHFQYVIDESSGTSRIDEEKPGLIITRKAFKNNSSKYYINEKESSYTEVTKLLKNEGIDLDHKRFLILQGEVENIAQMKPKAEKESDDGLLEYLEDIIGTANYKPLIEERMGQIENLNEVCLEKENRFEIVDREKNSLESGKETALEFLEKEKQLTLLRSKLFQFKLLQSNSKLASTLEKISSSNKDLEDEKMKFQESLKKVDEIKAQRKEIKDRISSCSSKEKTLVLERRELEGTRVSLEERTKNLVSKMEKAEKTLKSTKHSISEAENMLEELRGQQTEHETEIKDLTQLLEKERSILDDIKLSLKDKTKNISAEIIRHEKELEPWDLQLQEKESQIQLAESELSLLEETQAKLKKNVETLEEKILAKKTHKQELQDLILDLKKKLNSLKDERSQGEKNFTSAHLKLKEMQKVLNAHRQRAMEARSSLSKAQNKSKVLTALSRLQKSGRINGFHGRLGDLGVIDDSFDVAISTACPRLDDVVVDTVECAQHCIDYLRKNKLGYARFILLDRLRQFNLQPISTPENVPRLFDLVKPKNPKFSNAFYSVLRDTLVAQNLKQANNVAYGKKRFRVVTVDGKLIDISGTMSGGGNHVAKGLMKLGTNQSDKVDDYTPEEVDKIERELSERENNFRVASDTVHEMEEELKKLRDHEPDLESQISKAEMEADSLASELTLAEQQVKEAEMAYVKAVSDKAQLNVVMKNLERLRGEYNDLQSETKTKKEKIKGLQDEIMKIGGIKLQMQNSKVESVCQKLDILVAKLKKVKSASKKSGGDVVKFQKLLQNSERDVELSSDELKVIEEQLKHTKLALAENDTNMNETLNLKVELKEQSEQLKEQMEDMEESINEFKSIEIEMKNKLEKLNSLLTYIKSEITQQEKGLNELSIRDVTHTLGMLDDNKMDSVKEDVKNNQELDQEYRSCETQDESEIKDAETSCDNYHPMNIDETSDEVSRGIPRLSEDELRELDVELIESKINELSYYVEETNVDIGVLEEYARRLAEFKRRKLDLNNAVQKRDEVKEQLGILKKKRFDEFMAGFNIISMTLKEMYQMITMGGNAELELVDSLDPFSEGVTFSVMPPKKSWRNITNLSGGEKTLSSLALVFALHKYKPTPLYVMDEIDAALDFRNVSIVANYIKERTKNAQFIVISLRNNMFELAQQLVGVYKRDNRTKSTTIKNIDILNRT

[1] = target: T2, Brn1 K409D, R411D, K414D, K451D, K452D, K456D, K457D (S. cerevisiae) (UniProt P38170); test: as above
T2 sequence: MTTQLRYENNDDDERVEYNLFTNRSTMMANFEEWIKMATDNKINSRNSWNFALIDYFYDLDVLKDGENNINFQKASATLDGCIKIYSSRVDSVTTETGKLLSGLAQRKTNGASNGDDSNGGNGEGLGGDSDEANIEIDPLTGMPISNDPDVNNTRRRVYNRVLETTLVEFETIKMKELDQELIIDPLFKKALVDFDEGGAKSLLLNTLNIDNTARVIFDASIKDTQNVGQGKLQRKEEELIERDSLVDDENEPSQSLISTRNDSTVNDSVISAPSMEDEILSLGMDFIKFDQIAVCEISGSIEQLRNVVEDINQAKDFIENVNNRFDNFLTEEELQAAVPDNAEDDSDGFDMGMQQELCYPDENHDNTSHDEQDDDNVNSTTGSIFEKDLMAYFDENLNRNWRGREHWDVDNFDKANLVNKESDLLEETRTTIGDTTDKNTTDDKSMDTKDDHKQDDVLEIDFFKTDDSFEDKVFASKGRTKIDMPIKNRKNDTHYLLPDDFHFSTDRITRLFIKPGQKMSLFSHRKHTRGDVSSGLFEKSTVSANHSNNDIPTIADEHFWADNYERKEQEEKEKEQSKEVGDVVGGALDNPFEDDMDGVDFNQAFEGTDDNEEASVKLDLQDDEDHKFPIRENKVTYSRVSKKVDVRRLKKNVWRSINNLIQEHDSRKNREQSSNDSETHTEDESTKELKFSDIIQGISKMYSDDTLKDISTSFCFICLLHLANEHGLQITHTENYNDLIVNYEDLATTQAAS

B1: Ycs4 (protein, UniProt Q06156 1-1176)
chain: MSGFSLSEYLTKFQTTDRESYPRLQDPSRELNVIIDQLAVSPEQIDASPDSLEALIDLCHDFPHLTPKLQTQLSYLISSSLSNLSKDIKANLSSNVNFTEIGGLIPQWKRHLEEYGYLIQVLLTFLQDELHKVSSQSTNLNRSAKNSKNDSANVELFKRDCNQMENLLESITKLLEINLSKIFQTTPEKDLFIGLFTRPLFVLLEIEPVTKVSSLKMFIQRILAMCVKNHGQSSSIQSSLMTNLTYFLHLSVFNAELLKLLNDEYNYPQLTEDILKEISTRVFNAKDTTGPKAISNFLIKLSELSPGIMLRQMNLVITLLNNSSITLRCSVVEACGNIVAELAQDPQTMEHYKQQIAVLIELLEERFQDSNPYVRTKAIQGCSKICDLSSKFNKSKAKFTSLAVRSLQDRSSLVRRNSVKLLSKLLLKHPFKAIHGSQLRLSEWEEYLKGSESQLNSTLKKVESQETLNDTIERSLIEEEVEQDEGQCRTELEGSFNKSAELSRIENEVENINATNTSVLMKLKLMIVYYKDAISFIKEIHKSIELISNLLFSKNRNEVLESMDFLVLADAFDIELSEFGIKKMLHLVWMKGTNDEGTSISVHLIECYKQLFLTAPDSCNMQEKAAHIAKNLINLSIGASIADLASLEQLLGMMYEQKLIDQHVINILWAIYNSASKASMQKEQNVNNRDSEKGFSKEQIHGSIIILGMLSLADNEIALKGLESLLNIGLGAVGLKDLTLCRYSCLALERMVPKRSTIITKAINQELEDVAVKKLYAIIINYTKDNEYYPMCEQALSALFTISSKPDILATDLIREKTMMTFGKPEEEDSILSLEQSSRVVSLSQLLFIVGQVAIKTLVYLEKCEAEFKKRKIEAETRNGKVKNQGADVTNTTQDNGGDKELEMIGGTNEDDFTDAIQFVKENELLFGEKSILGKFCPIVEEIVSNSSRFSDPMLQRTATLCLEKLMCLSSKYCEKSLPLLITVMEKSPDPTIRSNAVLGLGDMAVCFNNLVDENTDYLYRRLHDENLMVQRTCLMTVTFLILAGQVKVKGQLGEMAKCLDNPDQGISDMCRLFFTELASKDNAIYNGFIDIFSNLSSDDLLGKESFKKIIKFLLTFIDKERHQKQLNEKLVGRLRKCETQKQWDDIAFVLNNLPYKNEDVTALLEQGFKVVSAKE
In the case of B1, the binding (Smc4 (S. cerevisiae)) is reported as “binds” and the binding [1] is reported as “binds”.
